Screening data, single-dose tests

The chains behind the UniProt entries cited, without tags or fusion partners. Residues count along the entry.
UniProt Q4DA54, 1-478: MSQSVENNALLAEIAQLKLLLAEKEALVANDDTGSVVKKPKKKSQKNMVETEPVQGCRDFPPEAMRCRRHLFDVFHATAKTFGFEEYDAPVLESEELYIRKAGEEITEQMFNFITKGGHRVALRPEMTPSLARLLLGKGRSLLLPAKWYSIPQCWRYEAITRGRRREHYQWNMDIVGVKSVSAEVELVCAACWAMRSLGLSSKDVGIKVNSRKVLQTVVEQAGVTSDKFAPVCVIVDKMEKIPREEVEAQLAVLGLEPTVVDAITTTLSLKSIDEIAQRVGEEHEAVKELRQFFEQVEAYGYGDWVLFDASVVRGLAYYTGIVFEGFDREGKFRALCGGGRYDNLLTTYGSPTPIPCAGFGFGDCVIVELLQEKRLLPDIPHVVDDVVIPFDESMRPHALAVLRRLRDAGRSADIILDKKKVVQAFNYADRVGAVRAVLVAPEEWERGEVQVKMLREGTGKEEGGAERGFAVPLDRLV
UniProt A4I591, 1-473: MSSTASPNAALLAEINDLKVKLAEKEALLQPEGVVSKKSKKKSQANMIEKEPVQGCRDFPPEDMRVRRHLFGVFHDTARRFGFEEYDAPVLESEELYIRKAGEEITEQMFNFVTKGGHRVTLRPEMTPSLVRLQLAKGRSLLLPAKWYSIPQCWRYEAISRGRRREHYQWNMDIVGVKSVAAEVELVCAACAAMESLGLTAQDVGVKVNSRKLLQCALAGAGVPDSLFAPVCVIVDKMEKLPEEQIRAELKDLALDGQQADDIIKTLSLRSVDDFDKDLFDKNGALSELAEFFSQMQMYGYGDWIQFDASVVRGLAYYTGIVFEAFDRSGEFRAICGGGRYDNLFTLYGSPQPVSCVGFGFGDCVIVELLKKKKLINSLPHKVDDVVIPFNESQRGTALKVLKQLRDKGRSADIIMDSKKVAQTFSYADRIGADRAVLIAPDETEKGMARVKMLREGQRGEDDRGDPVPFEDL

The filed quantity is “Percent Effect” (%). The controls that fix the scale are not given in the record; negative values are as filed. The compounds are a random part of those screened. A dash means the value is not listed here; it may have been measured.

A: 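Assay of Toxoplasma gondii numbers, read through their beta-galactosidase reporter with a colour substrate. Tested at 10 µM. Higher reads as fewer parasites (inferred from which compounds were picked for retests). Size under these conditions: about 67,000 compounds, about 260 of them at 50% or above in at least one test.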
B: 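Enzyme assay of histidyl-tRNA synthetase; the read-out is not stated. Target: Histidine-tRNA ligase, Trypanosoma cruzi CL Brener (UniProt Q4DA54). Compounds at 30 µM. Higher reads as stronger inhibition (inferred: compounds with an IC50 in retests scored well above the rest). About 69,000 compounds were tested under these conditions; 0.045% (about 31) showed 50% or more at least once.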
C: 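Enzyme assay of histidyl-tRNA synthetase; the read-out is not stated. Target: Histidine-tRNA ligase, Leishmania infantum (UniProt A4I591). Tested at 30 µM. Higher reads as stronger inhibition (inferred: compounds with an IC50 in retests scored well above the rest). The assay is labelled LdHisRS but filed under L. infantum. About 69,000 compounds were tested under these conditions; 0.6% (about 410) showed 50% or more at least once.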
D: 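Whole-parasite assay of Trypanosoma brucei over 72 hours; the read-out is not stated. Tested at 30 µM. Higher reads as stronger inhibition (inferred: compounds with an IC50 in retests scored well above the rest). Values scatter widely below zero; nearly all retest evidence comes from the higher of the two concentrations used. Of about 64,000 compounds tested this way, about 940 (1.5%) reached 50% or more in at least one test.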

structure,A,B,C,D
CCn1cc(NC(=O)C2CCN(Cc3nc(C)c(C)o3)CC2)cn1,-20.8,0,23.08,-3.408
CN(C1CCCCC1)S(=O)(=O)N1CCN(Cc2ccon2)CC1,1.354,0.9804,10,-17.92
O=S(=O)(NCCN1CCOCC1)c1cncc(Cl)c1,-0.4566,7.895,5.833,-8.964
CCc1cc(N2CCC(F)(F)CC2)n2nc(C)c(C)c2n1,-6.569,9.091,61.67,-19.44
CN1CCCC(CCC(=O)N2CCc3onc(C(=O)N(C)C)c3C2)C1 (stereo unspecified),5.24,-3.352,11.46,10.74
O=S(=O)(c1cccnc1)N1CCN(CC(O)c2ccccc2)CC1 (stereo unspecified),-33.16,6.173,4.301,-29.28
Cc1c(C(=O)O)cnn1-c1ccc(-c2nc(C(C)(C)C)no2)cn1,11.46,7.216,1.099,-1.696
COC(=O)COc1ccc(-c2noc(C3CCCO3)n2)cc1 (stereo unspecified),11.22,3.982,0.885,-44.1
Cc1ccc(C(NC(=O)CN2CCc3c(ncn3C)C2)C2CC2)cc1 (stereo unspecified),-6.81,7.229,18,-47.05
O=C(O)C(F)(F)F.O=C(O)C(F)(F)F.[H][C@@]12CN(Cc3ccc(C)s3)CCC[C@]1(C(=O)O)CN(CC1CC1)C2,13.59,-,-,-73.23
CNC(=O)[C@H]1CC[C@@H]2[C@@H](CCN2CCOCc2ccccc2)O1,-,0,16,-
CCCN(CC1COc2ccccc2O1)C(=O)CCn1cncn1 (stereo unspecified),-13.69,3.422,5.6,-31.13
Fc1ccc(C2(CNCCc3cccs3)CCOC2)cc1 (stereo unspecified),-7.512,-0.5291,1.333,-16.13
CC(C)=CCCC1(C)CCC(=O)N(CCc2csc(N)n2)C1 (stereo unspecified),-13.25,7.296,24.59,-22.22
COCc1ccccc1NC(=O)NCc1ccc(OCC2CC2)nc1,3.816,7.5,13.21,38.96
CCN(CC)C1CCN(C(=O)NCc2nncn2CC)CC1,0.4902,-2.642,28.38,-13.91
CC(C)CN1CCc2[nH]cnc2C12CCN(C(=O)c1ccccn1)CC2,-,9.195,17.74,-20.16
CCNC(c1ccc(OC)cc1)c1cccnc1 (stereo unspecified),4.106,1.128,5.405,37.8
Cc1cccc(C)c1OC1CCN(Cc2ccn(C)c(=O)c2)CC1,5.196,7.471,10.43,-13.41
COC(=O)c1ccc(S(=O)(=O)N2CCC(Oc3cccnn3)CC2)cc1,-1.493,4.082,33.06,1.437
CC(C)c1nnc(NC(=O)N(C)Cc2ccc(C(N)=O)cc2)s1,1.361,13.13,3.191,-13.91
COc1nn(C)c2c1CCCN(S(=O)(=O)c1cccc(C)c1)C2,6.888,3.261,14.47,-64.59
CC(C)Cc1ccc(C(=O)Cn2cnnc2[S+](C)[O-])cc1 (stereo unspecified),-4.812,4.651,13.11,-19.87
CCn1c(N)nc2cc(C(=O)N3CCN(c4nccs4)CC3)cnc21,11.32,2.703,13.7,-10.13
CC(NCc1cccn1C)c1noc(-c2ccc(Cl)cc2)n1 (stereo unspecified),-6.503,2.941,14.29,-28.34
CCCC(=O)N1CCC2(CC1)COC2,-9.038,0.9709,11.65,-26.3
Cc1nc2c(c(NCCNC(=O)C(C)C)n1)Cc1ccccc1OC2,-8.98,7.463,22.89,-37.78
O=C1COC2(CCN(S(=O)(=O)C3CC3)CC2)CN1c1ccsc1,-12.85,2.439,23.08,-7.041
COc1cccc([C@@H]2CN(C3CSCCSC3)C[C@H]2C(=O)O)c1,-1.653,0.578,17.33,1.609
Cc1nc(N2CCCCC2)ncc1-c1cc(O)[nH]n1,-0.4782,-2.732,17.48,42.49
COC(=O)N1CCCC(C(=O)NCc2cc3cccc(OC)c3o2)C1 (stereo unspecified),-,3.759,-25.84,-64.34
Cc1nc(C2CCCN(C(=O)c3ccc(OCC4CC4)cc3)C2)no1 (stereo unspecified),-1.695,-2.273,31.82,7.179
O=C(Nc1cccnc1)[C@H]1C[C@H]2OCC[C@H]2N(C(=O)c2ccsc2)C1,-,0.5464,17.65,-
CC(NC(=O)c1ccc(Cl)cc1)c1nnc(SCC(=O)O)n1C (stereo unspecified),78.32,1.739,-1.724,-30.42
Cn1cc(Br)c(C(=O)NCCCn2cc(Cl)cn2)n1,9.479,2.632,8.85,-
Cc1ccccc1C1(CNc2nnc(C)c(C)c2C#N)CCOCC1,2.77,3.333,21.15,-2.158
CCc1cc(N[C@H](C(N)=O)C(C)C)n2nc(C)c(C)c2n1,-26.44,4.046,6.383,-28.6
O=C(c1cc(C2CC2)on1)N1C[C@H]2CC[C@](O)(c3ccccc3F)[C@H]2C1,-,5.303,5.634,-
O=C(O)C(F)(F)F.O=C(O)C(F)(F)F.[H][C@@]12CCCO[C@]1([H])[C@H](N1CCN(C)CC1)CN2C(=O)c1occc1C,5.459,-,-,-13.21
CCc1ccc(C(=O)N2CC[C@H](Oc3cccnc3C)[C@@H](O)CC2)cc1,3.189,2.198,-4.348,-60.71
CCOC(C(=O)N1CCn2c(CC)nnc2C1)c1ccccc1 (stereo unspecified),3.837,0,5,-15.38
CC(=O)N1CCC2(CCN(C(=O)c3ccc(Cl)c(C(F)(F)F)c3)C2)C1 (stereo unspecified),-0.654,-2.479,12.73,28.83
Cc1ccc(CN2CCC3(CCCC(=O)N3)CC2)s1.O=C(O)C(F)(F)F,-32.97,-,-,-18.3
O=C(CCc1ccsc1)N1CCCC(N2CCNC2=O)C1 (stereo unspecified),-13.2,6.098,20.48,-15.61
CC(CN1CCOCC1)NC(=O)N1CCN(S(C)(=O)=O)CC1 (stereo unspecified),20.75,0.8696,0,-42.68
CN(Cc1cc(F)ccc1C#N)CC(C)(CO)CO,-3.604,-6.358,-1.333,4.538
C=C(C)COCCNC(=O)N1CCc2c(cccc2OC)C1,4.182,2.674,13.09,-12.63
CCOC(=O)CCCN1CCCC(C(=O)Nc2ccc(Cl)cn2)C1 (stereo unspecified),-15.77,6.667,5.983,-34.29
CC(C)c1nnc2n1CCN(CCC(=O)N1CCc3ccccc31)C2,-8.897,4.734,12.5,5.869
CN(CC1CCN(CCO)CC1)CC(O)c1ccc(F)cc1F (stereo unspecified),4.31,-1.149,2.564,-
Cn1cccc1C(=O)N1CCC2(CCCN2c2ncccn2)CC1.O=C(O)C(F)(F)F,3.387,-,-,-5.948
O=C(O)C(F)(F)F.OCCOCc1ncn2c1CN(Cc1cccs1)CCC2,3.087,-,-,-16.22
O=C(C1CCOCC1)N1C[C@H]2CCC[C@@]2(COc2cccnc2)C1,-,12.85,13.46,-
COCCCC1(C(=O)O)CCCN(Cc2cc3c(cc2C)OCCO3)C1 (stereo unspecified),10.37,3.867,18.31,-11.54
N#CC1(NC(=O)Cc2cc(Cl)c3c(c2)OCCO3)CCC1,-0.9302,13.33,13.39,24.99
COc1ccc2[nH]nc(CN3CCC(C(C)N4CCCC4)CC3)c2c1 (stereo unspecified),-3.862,6.806,8.602,40.34
Cc1cccc(CC(=O)Nc2cnn(C3CCOC3)c2)c1 (stereo unspecified),12.02,6.25,9.756,-9.984
Cc1cnc(CCNC(=O)NCCc2ccc(O)cc2)s1,-8.574,5.025,15.29,5.628
O=C(CCCc1ccccn1)N1CCCC1c1noc(C2CC2)n1 (stereo unspecified),-6.565,1.433,1.754,-5.94
[H][C@@]12CCN(C3CCOCC3)C[C@@]1([H])O[C@H](C(=O)N1CCCC1)C2,-1.263,-,-,-64.47

For reference, 3 entries once more:

structure,A,B,C,D
CCN(CC)C1CCN(C(=O)NCc2nncn2CC)CC1,0.4902,-2.642,28.38,-13.91
Cn1cc(Br)c(C(=O)NCCCn2cc(Cl)cn2)n1,9.479,2.632,8.85,-
CCc1cc(N[C@H](C(N)=O)C(C)C)n2nc(C)c(C)c2n1,-26.44,4.046,6.383,-28.6

Measurements from “University of Dundee, Small-Polar-MMV Screening Library” (2021), ChEMBL document CHEMBL3988442.